{"source": "PubChem BioAssay AID504791 – Drosophila RNAi Screening Center – 2011", "purpose": "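Genes whose knock-down strengthens or weakens small-RNA reporter silencing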 (primary screen)", "cells": "Drosophila S2-derived reporter cells", "reagents": "long dsRNA against Drosophila genes, about 150-250 ng dsRNA per well (siRNA assay); about 80-120 ng (miRNA assay)", "time to read-out": "about 5 days (siRNA assay); about 4 days (miRNA assay)", "treatment": "copper sulfate induction of reporters: 25 µM (siRNA assay); 200 mM stated (miRNA assay), 1-2 days before reading", "measurement": "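Per-well ratio of Renilla over firefly light, expressed relative to that plate's average ratio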", "units": "stable assay Renilla, run 1 in luminescence; stable assay firefly, run 1 in luminescence", "hit rule": "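a well was a first-pass pick when its plate-scaled ratio rose above 1.5 (siRNA assay) or 1.6 (miRNA assay), or dropped below 0.6; a gene counted only if two separate dsRNAs agreed on retest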", "note": "The deposit covers about 23,000 reagents; this is an unselected part of those that have a named target and a result. Over the whole deposit, 199 (0.86%) got an active call. 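Plate-scaled ratios behind the calls are not deposited; printed light signals are raw; many rows marked increased or decreased are still called inactive.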 Unmarked entries are inactive. The numbers tell different reagents against one gene apart. No sequences are given here. The record does not give: the direction of the score."}
{"predicted target": "CG7675", "dsRNA no.": 1, "stable assay Renilla, run 1": 8766, "stable assay firefly, run 1": 3.35e5}
{"predicted target": "yem", "dsRNA no.": 1, "stable assay Renilla, run 1": 6924, "stable assay firefly, run 1": 3.70e5}
{"predicted target": "yem", "dsRNA no.": 2, "stable assay Renilla, run 1": 7158, "stable assay firefly, run 1": 3.82e5}
{"predicted target": "CG10348", "dsRNA no.": 1, "stable assay Renilla, run 1": 6711, "stable assay firefly, run 1": 4.70e5}
{"predicted target": "CG10348", "dsRNA no.": 2, "stable assay Renilla, run 1": 8393, "stable assay firefly, run 1": 4.92e5}
{"predicted target": "CG10348", "dsRNA no.": 3, "stable assay Renilla, run 1": 3828, "stable assay firefly, run 1": 2.79e5}
{"predicted target": "Pp1-87B", "dsRNA no.": 1, "stable siRNA reporter change": "reporter ratio raised past the hit cutoff", "stable assay Renilla, run 1": 16250, "stable assay firefly, run 1": 4.37e5}
{"predicted target": "Pp1-87B", "dsRNA no.": 2, "stable siRNA reporter change": "reporter ratio lowered past the hit cutoff", "stable assay Renilla, run 1": 2528, "stable assay firefly, run 1": 3.05e5}

An excerpt from above, limited to “stable assay Renilla, run 1”.
CG7675: 8766
yem #1: 6924

Additional records:
{"predicted target": "CG10802", "dsRNA no.": 1, "stable assay Renilla, run 1": 7335, "stable assay firefly, run 1": 5.26e5}
{"predicted target": "Map60", "dsRNA no.": 1, "stable assay Renilla, run 1": 8064, "stable assay firefly, run 1": 3.66e5}
{"predicted target": "l(2)gd1", "dsRNA no.": 1, "stable assay Renilla, run 1": 5164, "stable assay firefly, run 1": 2.71e5}
{"predicted target": "CG8818", "dsRNA no.": 1, "stable assay Renilla, run 1": 7370, "stable assay firefly, run 1": 4.44e5}
